Assay results reported in article doi:10.1101/869289 (bioRxiv, 2019).
No constants are given. Whether binding was seen depends on the method and setting. Some entries that bind do so weakly or less than the wild type. Blank lines part the entries; values can stand above or below the binder they belong to.

Tests used:
[1] = molecular target: T1, Tim9/10a/10b hexamer chaperone (human) (UniProt Q9Y5J7+P62072+Q9Y5J6); experiment: cryo-EM structure
T1 sequence 1: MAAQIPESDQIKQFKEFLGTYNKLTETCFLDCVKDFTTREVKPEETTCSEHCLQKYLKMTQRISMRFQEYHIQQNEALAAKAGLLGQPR
T1 sequence 2: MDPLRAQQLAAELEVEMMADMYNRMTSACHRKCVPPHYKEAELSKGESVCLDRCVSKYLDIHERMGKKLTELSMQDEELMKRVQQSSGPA
T1 sequence 3: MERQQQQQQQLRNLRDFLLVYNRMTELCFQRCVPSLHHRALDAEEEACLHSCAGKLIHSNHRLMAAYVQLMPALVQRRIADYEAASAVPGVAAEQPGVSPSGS

[2] = molecular target: T2, Tim9/10a hexamer chaperone (human) (UniProt Q9Y5J7+P62072); experiment: cryo-EM structure
T2 sequence 1: T1 sequence 1
T2 sequence 2: T1 sequence 2

binding [1]: binds
B1: acylglycerol kinase (AGK) (enzyme, UniProt Q53H12 1-422)
chain: MTVFFKTLRNHWKKTTAGLCLLTWGGHWLYGKHCDNLLRRAACQEAQVFGNQLIPPNAQVKKATVFLNPAACKGKARTLFEKNAAPILHLSGMDVTIVKTDYEGQAKKLLELMENTDVIIVAGGDGTLQEVVTGVLRRTDEATFSKIPIGFIPLGETSSLSHTLFAESGNKVQHITDATLAIVKGETVPLDVLQIKGEKEQPVFAMTGLRWGSFRDAGVKVSKYWYLGPLKIKAAHFFSTLKEWPQTHQASISYTGPTERPPNEPEETPVQRPSLYRRILRRLASYWAQPQDALSQEVSPEVWKDVQLSTIELSITTRNNQLDPTSKEDFLNICIEPDTISKGDFITIGSRKVRNPKLHVEGTECLQASQCTLLIPEGAGGSFSIDSEEYEAMPVEVKLLPRKLQFFCDPRKREQMLTSPTQ

binding [1]: binds
B2: Tim22 (natural protein, human, UniProt Q9Y584 1-194, looked up)
chain: MAAAAPNAGGSAPETAGSAEAPLQYSLLLQYLVGDKRQPRLLEPGSLGGIPSPAKSEEQKMIEKAMESCAFKAALACVGGFVLGGAFGVFTAGIDTNVGFDPKDPYRTPTAKEVLKDMGQRGMSYAKNFAIVGAMFSCTECLIESYRGTSDWKNSVISGCITGGAIGFRAGLKAGAIGCGGFAAFSAAIDYYLR

binding [2]: binds
binding [1]: binds
B3: Tim29 (natural protein, human, UniProt Q9BSF4 32-260, looked up)
chain: GSWARALLRDYAEACRDASAEARARPGRAAVYVGLLGGAAACFTLAPSEGAFEEALLEASGTLLLLAPATRNRESEAFVQRLLWLRGRGRLRYVNLGLCSLVYEAPFDAQASLYQARCRYLQPRWTDFPGRVLDVGFVGRWWVLGAWMRDCDINDDEFLHLPAHLRVVGPQQLHSETNERLFDEKYKPVVLTDDQVDQALWEEQVLQKEKKDRLALSQAHSLVQAEAPR
